Assay results from patent publication US5206247A, “Spiro(4.5.)decane compounds” (Adir Et Compagnie, priority 1990, dated 1993).
At least one read-out could not be matched to a standard name with certainty.

How the values were obtained:
[1] = system: human LDLs; test: Modification of the LDLs by copper sulphate (MDA formation); assay type: biochemical; settings: oxidation by copper sulphate, 24 hours; read-out: IC50 Cu^2+ (inhibition of lipid peroxidation of human LDLs, MDA production)
Procedure: Human LDLs are incubated for 24 hours in the presence of copper sulphate (5×10^-5 M or 5×10^-6 M) and in the absence or presence of the test compounds (10^-7 M to 10^-4 M).
After incubation, the peroxidation of the LDLs is evaluated by electrophoresis on agar gel and by the formation of one of the products of lipid peroxidation: malonic dialdehyde (MDA) (Parthasarathy S., Young S. G., Witztum J. L., Pittman R. C., and Steinberg D.; J. Clin. Invest. 77, 641-644, 1986).
The activity of the test compounds is evaluated by calculating the concentrations that reduce the production of MDA by 50% (IC50) compared with control experiments carried out in the absence of test compound.
(§1) Table A lists the IC50 values, which indicate the capacity to inhibit the lipid peroxidation of human LDLs, obtained with a sample of the compounds of the invention and of the reference compounds probucol and vitamin E, in two tests causing the development of the oxidation of the LDLs: by copper sulphate (Cu^2+) or by endothelial cells (EC).

[2] = system: human LDLs; test: Modification of the LDLs by endothelial cells (MDA formation); assay type: cell-based; settings: oxidation by rabbit aorta endothelial cells, 24 hours; read-out: IC50 EC (inhibition of lipid peroxidation of human LDLs, MDA production)
Procedure: Human LDLs are incubated for 24 hours in the presence of rabbit aorta endothelial cells (line RECL B4 supplied by Professor Steinberg, USA) and in the absence or presence of the test compounds (10^-7 M to 10^-4 M).
After incubation, the peroxidation of the LDLs is evaluated by electrophoresis on agar gel and by the formation of one of the products of lipid peroxidation: malonic dialdehyde (MDA) (Steinbrecher U.P., Parthasarathy S, Leake D. S., Witztum J. L., and Steinberg D., Proc. Nat. Acad. Sci. USA 81. 3883-3887, 1984).
The activity of the test compounds is evaluated by calculating the concentrations that reduce the production of MDA by 50% (IC50) compared with the control experiments carried out in the absence of test compound.
as §1

With CC(C)(C)c1cc(SCC(O)CN2CCC3(CC2)CNC(=O)O3)cc(C(C)(C)C)c1O (racemic) [Example 1, (R,S)-8-[3-(3,5-di-tert.-butyl-4-hydroxyphenylthio)-2-hydroxypropyl]-1-oxa-2-oxo-3,8-diazaspiro[4.5]decane] the IC50 [1] was 300 nM and the IC50 [2] was 30 nM.
